Experimental data as given in article PMC7195483.
Where a chain is given by its changes, count along the chain named. Names and notes keep the numbering of the source. These are yes or no findings as the source states them, for the method shown. For some of these results: Binding seen in cells or lysates may run through a third protein. Some binding calls cover weakened binding; strength is not graded here. Tags and fused reporters may be left off the sequences shown.

T1: FLAG-tagged full-length Set1 (S. cerevisiae) (UniProt P38827)
T1 sequence: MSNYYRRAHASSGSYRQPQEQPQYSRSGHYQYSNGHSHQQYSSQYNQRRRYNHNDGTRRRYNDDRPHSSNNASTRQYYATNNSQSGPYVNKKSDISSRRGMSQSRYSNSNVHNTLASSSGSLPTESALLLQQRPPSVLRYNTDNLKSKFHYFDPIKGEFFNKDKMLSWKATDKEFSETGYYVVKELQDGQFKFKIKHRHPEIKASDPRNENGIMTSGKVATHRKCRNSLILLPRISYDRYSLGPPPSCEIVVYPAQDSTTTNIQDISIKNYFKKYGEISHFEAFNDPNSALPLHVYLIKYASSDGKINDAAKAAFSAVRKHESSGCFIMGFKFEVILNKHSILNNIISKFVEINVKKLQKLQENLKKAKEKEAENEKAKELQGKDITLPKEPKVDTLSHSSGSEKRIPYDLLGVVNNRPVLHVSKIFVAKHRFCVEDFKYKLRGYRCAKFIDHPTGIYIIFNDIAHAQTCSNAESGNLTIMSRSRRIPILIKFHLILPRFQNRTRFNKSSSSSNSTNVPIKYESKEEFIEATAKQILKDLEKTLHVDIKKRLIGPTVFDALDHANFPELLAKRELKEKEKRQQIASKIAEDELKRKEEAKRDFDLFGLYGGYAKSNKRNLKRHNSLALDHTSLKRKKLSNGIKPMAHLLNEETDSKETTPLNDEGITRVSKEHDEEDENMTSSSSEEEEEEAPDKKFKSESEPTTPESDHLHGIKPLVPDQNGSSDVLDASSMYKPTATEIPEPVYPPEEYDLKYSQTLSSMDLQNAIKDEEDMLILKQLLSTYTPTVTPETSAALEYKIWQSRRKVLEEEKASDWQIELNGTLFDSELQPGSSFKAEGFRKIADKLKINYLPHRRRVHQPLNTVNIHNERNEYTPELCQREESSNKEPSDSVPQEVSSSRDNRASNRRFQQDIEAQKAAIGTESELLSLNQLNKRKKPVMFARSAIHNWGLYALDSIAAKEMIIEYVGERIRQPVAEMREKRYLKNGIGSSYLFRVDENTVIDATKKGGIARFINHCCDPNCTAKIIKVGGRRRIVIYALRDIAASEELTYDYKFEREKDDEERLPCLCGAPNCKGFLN

T2: Set1 fragment F1 (aa 1–236) fused to Gal4 BD (S. cerevisiae) (UniProt P38827)
T2 sequence: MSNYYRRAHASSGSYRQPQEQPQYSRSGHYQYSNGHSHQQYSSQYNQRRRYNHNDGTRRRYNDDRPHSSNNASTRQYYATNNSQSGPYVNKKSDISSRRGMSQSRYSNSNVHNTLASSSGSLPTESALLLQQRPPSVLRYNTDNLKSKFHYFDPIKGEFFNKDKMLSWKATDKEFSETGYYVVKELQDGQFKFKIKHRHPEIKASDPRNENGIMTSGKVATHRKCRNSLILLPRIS

T3: FLAG-tagged Set1, baculovirus-expressed (bait of the reconstituted Set1/COMPASS) (S. cerevisiae) (UniProt P38827)
T3 sequence: T1 sequence

B1: Swd2–HA (protein, UniProt P36104 1-329)
chain: MTTVSINKPNLLKFKHVKSFQPQEKDCGPVTSLNFDDNGQFLLTSSSNDTMQLYSATNCKFLDTIASKKYGCHSAIFTHAQNECIYSSTMKNFDIKYLNLETNQYLRYFSGHGALVNDLKMNPVNDTFLSSSYDESVRLWDLKISKPQVIIPSLVPNCIAYDPSGLVFALGNPENFEIGLYNLKKIQEGPFLIIKINDATFSQWNKLEFSNNGKYLLVGSSIGKHLIFDAFTGQQLFELIGTRAFPMREFLDSGSACFTPDGEFVLGTDYDGRIAIWNHSDSISNKVLRPQGFIPCVSHETCPRSIAFNPKYSMFVTADETVDFYVYDE
B2: Swd2 Gal4 AD fusion (protein, UniProt P36104 1-329)
chain: B1 chain
B3: Swd2–F250A mutant, HA-tagged, baculovirus-expressed (protein, UniProt P36104 1-329)
chain: B1 chain with F250A
B4: Swd2 wild-type, HA-tagged, baculovirus-expressed (protein, UniProt P36104 1-329)
chain: B1 chain

What was measured:
[1] = molecular target: T1, FLAG-tagged full-length Set1 (S. cerevisiae); assay: co-IP; yeast whole-cell lysate (3 mg), anti-DYKDDDDK agarose beads overnight at 4 °C, 50 mM HEPES-KOH pH 7.5, 150 mM NaCl, 0.1% Triton X-100; immunoblot; set1Δ cells, also swd2Δ, paf1Δ, rtf1Δ and bre1Δ backgrounds
[2] = molecular target: T2, Set1 fragment F1 (aa 1–236) fused to Gal4 BD (S. cerevisiae); assay: two-hybrid; Gal4 BD fusions with Gal4 AD fusions in reporter strains PJ69-4A or CG1945; HIS3 and ADE2 reporters, scored after 2 or 3 days; 5 or 20 mM 3-AT for stringency; also in PJ69-4A with wild-type or F250A Swd2 (reduced in F250A)
[3] = molecular target: T3, FLAG-tagged Set1, baculovirus-expressed (bait of the reconstituted Set1/COMPASS) (S. cerevisiae); assay: co-IP; Set1 complexes reconstituted in Sf9 cells by co-infection with baculoviruses, affinity purified on M2 (anti-FLAG) agarose; Coomassie staining and anti-FLAG, anti-HA immunoblots

Binder	binding [3]	also measured
B1	–	binding [1]: binds
B2	–	binding [2]: binds
B3	binds	–
B4	binds	–
